# Publication doi:10.1101/2022.07.08.499356
# These are yes or no findings as the source states them, for the method shown. In cells and extracts the contact can be indirect. Some entries that bind do so weakly or less than the wild type.
# Molecular target: T1, MEC-2::mCherry, full-length MEC-2 (A isoform) (C. elegans) (UniProt Q27433)
# T1 sequence: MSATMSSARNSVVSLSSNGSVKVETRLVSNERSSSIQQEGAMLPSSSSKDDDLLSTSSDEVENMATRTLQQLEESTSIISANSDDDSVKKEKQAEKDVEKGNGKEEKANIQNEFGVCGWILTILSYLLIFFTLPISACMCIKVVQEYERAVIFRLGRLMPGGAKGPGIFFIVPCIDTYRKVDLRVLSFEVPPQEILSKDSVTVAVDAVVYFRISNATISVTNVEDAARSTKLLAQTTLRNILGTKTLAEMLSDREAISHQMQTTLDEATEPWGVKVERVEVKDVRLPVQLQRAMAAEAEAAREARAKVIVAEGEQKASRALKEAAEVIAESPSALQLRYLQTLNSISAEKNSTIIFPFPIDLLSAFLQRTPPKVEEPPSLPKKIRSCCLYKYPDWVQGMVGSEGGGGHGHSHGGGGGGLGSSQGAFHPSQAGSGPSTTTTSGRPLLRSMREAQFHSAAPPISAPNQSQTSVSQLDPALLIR
# Experiment: FRET or BRET
substance,measurement,value
MEC-2(R385H)::Venus (from UniProt Q27433 1-481),binding,binds
